Results are given in words; binding and its absence hold for the method and conditions named. In cells and extracts the contact can be indirect. Some binding calls cover weakened binding; strength is not graded here. Tags and fused reporters may be left off the sequences shown.

By UniProt entry, the sequences of proteins in these tests, tags left out. Where a name states a change or a piece, a line headed by the entry shows the natural chain unless it says otherwise. Residues count along the entry.
UniProt P46531: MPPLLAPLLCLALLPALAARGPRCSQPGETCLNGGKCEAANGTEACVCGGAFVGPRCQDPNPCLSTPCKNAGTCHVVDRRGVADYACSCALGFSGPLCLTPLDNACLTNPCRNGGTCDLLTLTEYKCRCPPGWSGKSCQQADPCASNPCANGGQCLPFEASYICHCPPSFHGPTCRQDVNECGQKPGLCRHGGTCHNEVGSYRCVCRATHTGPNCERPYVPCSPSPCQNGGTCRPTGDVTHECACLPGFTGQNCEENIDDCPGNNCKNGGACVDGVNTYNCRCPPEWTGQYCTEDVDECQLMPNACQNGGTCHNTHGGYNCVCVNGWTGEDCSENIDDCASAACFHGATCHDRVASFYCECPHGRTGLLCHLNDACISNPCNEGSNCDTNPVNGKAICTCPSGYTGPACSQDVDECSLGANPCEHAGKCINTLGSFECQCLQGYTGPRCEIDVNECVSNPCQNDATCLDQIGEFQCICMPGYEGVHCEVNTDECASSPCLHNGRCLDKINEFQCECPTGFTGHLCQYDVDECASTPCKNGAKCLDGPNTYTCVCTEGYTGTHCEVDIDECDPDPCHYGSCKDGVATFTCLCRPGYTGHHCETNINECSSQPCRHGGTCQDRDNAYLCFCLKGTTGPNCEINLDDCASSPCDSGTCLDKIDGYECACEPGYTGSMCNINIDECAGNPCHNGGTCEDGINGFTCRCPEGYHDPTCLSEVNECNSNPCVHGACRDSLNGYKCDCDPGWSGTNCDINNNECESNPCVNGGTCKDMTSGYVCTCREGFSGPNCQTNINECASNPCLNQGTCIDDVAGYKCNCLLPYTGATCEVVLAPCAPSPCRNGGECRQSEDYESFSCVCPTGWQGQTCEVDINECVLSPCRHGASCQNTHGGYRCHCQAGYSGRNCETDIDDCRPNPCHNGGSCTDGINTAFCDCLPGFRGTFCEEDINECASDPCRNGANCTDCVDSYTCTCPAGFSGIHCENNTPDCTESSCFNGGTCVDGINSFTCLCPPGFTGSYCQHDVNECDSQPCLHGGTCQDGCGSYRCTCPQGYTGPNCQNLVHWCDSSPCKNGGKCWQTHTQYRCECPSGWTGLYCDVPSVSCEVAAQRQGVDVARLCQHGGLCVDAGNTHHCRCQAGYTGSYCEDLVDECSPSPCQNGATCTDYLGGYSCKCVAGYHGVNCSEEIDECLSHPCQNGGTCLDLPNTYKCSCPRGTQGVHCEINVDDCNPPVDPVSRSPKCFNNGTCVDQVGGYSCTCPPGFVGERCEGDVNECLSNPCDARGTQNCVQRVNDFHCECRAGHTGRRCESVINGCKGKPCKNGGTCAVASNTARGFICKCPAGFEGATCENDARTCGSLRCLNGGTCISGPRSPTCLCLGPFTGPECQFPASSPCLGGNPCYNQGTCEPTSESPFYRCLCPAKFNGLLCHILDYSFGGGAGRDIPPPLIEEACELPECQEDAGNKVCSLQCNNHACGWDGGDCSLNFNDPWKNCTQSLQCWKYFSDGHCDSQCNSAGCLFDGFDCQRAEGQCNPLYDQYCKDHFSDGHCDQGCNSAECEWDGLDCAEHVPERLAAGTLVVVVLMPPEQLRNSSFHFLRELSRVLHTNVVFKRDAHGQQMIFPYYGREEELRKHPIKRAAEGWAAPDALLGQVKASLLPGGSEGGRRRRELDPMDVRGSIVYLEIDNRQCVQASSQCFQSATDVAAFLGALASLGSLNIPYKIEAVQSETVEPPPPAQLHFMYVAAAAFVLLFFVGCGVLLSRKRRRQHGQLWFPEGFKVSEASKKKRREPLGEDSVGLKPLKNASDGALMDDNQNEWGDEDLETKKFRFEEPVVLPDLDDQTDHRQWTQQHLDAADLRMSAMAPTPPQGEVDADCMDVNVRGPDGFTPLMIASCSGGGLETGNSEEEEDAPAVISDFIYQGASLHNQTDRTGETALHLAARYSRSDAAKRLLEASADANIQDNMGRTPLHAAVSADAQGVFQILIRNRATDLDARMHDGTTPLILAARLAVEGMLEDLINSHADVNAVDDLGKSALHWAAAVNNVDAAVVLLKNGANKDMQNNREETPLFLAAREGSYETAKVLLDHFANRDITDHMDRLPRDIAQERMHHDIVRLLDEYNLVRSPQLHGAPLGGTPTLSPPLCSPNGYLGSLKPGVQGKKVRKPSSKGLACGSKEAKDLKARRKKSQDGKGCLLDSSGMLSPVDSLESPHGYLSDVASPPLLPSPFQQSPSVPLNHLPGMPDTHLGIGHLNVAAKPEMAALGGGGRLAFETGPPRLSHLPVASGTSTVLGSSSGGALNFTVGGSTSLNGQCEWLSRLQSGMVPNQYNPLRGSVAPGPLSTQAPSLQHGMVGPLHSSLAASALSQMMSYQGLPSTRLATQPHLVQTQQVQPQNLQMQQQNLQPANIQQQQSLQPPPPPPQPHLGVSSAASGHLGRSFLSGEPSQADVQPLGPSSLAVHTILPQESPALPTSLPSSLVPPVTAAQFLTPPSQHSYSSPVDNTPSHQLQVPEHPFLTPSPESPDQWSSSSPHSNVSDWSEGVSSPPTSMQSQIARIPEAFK
full-length Notch-1 (human (endogenous in ReNcell CX)): residues 19-2555 of P46531
Notch-1 intracellular domain (NICD) (human (endogenous in ReNcell CX)): residues 1754-2555 of P46531

Assay [1] has as its target Notch-1 intracellular domain (NICD) (human (endogenous in ReNcell CX)) (UniProt P46531). Briefly: co-IP; HNPCs transfected with Dab-1-FLAG for 24 hours; lysed in RIPA buffer (150 mM NaCl, 1% IGEPAL CA-630, 0.5% sodium deoxycholate, 0.1% SDS, 50 mM Tris pH 8.0) with 1% Triton-X; 700 ug protein with anti-Flag, anti-Notch-1 or anti-NICD for 3 hours at 4 C, protein G- or A-Sepharose 1 hr at 4 C, washed 5x with lysis buffer; western blot.

For assay [2], the target named is full-length Notch-1 (human (endogenous in ReNcell CX)) (UniProt P46531). Described as above.

B1: Dab-1 with a flag tag added to its C terminus (protein, UniProt O75553-6 1-555)
chain: MSTETELQVAVKTSAKKDSRKKGQDRSEATLIKRFKGEGVRYKAKLIGIDEVSAARGDKLCQDSMMKLKGVVAGARSKGEHKQKIFLTISFGGIKIFDEKTGALQHHHAVHEISYIAKDITDHRAFGYVCGKEGNHRFVAIKTAQAAEPVILDLRDLFQLIYELKQREELEKKAQKDKQCEQAVYQTILEEDVEDPVYQYIVFEAGHEPIRDPETEENIYQVPTSQKKEGVYDVPKSQPVSAVTQLELFGDMSTPPDITSPPTPATPGDAFIPSSSQTLPASADVFSSVPFGTAAVPSGYVAMGAVLPSFWGQQPLVQQQMVMGAQPPVAQVMPGAQPIAWGQPGLFPATQQPWPTVAGQFPPAAFMPTQTVMPLPAAMFQGPLTPLATVPGTSDSTRSSPQTDKPRQKMGKETFKDFQMAQPPPVPSRKPDQPSLTCTSEAFSSYFNKVGVAQDTDDCDDFDISQLNLTPVTSTTPSTNSPPTPAPRQSSPSKSSASHASDPTTDDIFEEGFESPSKSEEQEAPDGSQASSNSDPFGEPSGEPSGDNISPQAGS
On to B1, for which the binding entry in assay [1] and in assay [2] was “binds” throughout.

The record behind these values is article PMC2447831.
